# Results are given in words; binding and its absence hold for the method and conditions named. In cells and extracts the contact can be indirect. Some entries that bind do so weakly or less than the wild type.
# Chains of the proteins cited; added tags and fusions are not shown. Lines headed by an entry give the natural chain unless they say otherwise; changes in a name come on top.
# UniProt Q96LA8: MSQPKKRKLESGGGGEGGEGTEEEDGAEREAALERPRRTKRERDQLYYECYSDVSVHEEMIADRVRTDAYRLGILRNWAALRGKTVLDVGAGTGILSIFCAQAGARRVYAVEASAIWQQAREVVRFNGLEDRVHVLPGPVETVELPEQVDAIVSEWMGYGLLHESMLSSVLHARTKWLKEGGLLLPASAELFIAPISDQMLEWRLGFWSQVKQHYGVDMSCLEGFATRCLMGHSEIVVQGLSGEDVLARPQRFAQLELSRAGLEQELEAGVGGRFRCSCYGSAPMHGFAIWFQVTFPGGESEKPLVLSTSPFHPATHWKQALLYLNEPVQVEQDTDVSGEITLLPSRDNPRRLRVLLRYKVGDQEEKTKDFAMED
# UniProt P17542: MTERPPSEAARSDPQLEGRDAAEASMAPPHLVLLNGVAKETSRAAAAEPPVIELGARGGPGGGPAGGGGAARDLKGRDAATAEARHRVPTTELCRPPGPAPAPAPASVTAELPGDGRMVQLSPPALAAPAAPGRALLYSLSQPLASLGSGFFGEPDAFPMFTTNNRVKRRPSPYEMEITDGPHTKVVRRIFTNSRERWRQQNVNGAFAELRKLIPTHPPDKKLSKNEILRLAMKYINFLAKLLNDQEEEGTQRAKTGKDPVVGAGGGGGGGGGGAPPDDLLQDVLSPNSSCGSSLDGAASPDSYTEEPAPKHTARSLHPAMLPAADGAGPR
# How the values were obtained:
# [1] = molecular target: full-length glutathione-S-transferase (GST)-PRMT6 (UniProt Q96LA8); assay: pull-down; recombinant GST-PRMT6 on glutathione beads; in vitro translated 35S-labeled TAL1 or fragments; SDS-PAGE and autoradiography; only the target purified
# FLAG-tagged TAL1 = FLAG-tagged TAL1 (UniProt P17542); assay: co-IP; extracts of transiently transfected HEK293T cells; lysis buffer 50 mM Tris pH 7.5, 150 mM NaCl, 0.1% Igepal, 1 mM EDTA; benzonase digest; anti-FLAG magnetic beads, 4 °C, 2 h; Western blot
binding [1],binding (FLAG-tagged TAL1),Substance
binds,–,in vitro translated 35S-labeled full-length TAL1 (1-331) (from UniProt P17542 1-331)
no binding,–,TAL1 aa176-331 (from UniProt P17542 176-331) (domain or fragment)
binds,–,TAL1 aa160-331 (from UniProt P17542 160-331) (domain or fragment)
–,binds,HA-tagged PRMT6 (from UniProt Q96LA8 1-375) (enzyme)

# Reference: PMC11847539
